Reference: paper PMC11349225
No constants are given. Whether binding was seen depends on the method and setting. Binding can be weak; no strength is given. For part of these data: Where a sequence is shown, tags or fusion partners need not be part of it. For part of these data: Binding seen in cells or lysates may run through a third protein. Values belong to the binder of their own block, whether it stands above or below them.

Assays:
[1] = target: FLAG-tagged AjMyc-f1 (full length ORF, 1-431 aa) (Apostichopus japonicus); test: co-IP; HEK 293T cells transfected with FLAG-tagged AjMyc and EGFP-tagged AjOTUB1 constructs; IP with anti-FLAG and blot with anti-GFP, and IP with anti-GFP and blot with anti-FLAG; pre-immune serum as control; also in si-circ-1- or siNC-transfected cells
[2] = target: FLAG-tagged AjMyc-f3 (300-407 aa) (Apostichopus japonicus); test: as above
[3] = target: A. japonicus Myc (AjMyc), endogenous (Apostichopus japonicus (endogenous in coelomocytes)); test: co-IP; endogenous proteins in the nuclei of coelomocytes of sea cucumbers challenged with V. splendidus; western blotting; Histone H3 as internal reference
[4] = target: FLAG-tagged AjMyc-f1 (full length ORF, 1-431 aa) (Apostichopus japonicus); test: pull-down; rAjMyc-f1 (1 μg) immobilised on FLAG resin; rAjOTUB1-f1 or rAjOTUB1-f1-mut (3 μg) added mixed with circ-FGL1-f1 or circ-FGL1-f1-mut (3 μg), overnight at 4°C; eluted with FLAG elution buffer; blot with anti-GFP; both purified

- binding [1]: binds
- binding [2]: binds
B1: EGFP-tagged AjOTUB1-f2 (110-210 aa) (domain or fragment, UniProt A0AB39JB66 110-210)
chain: EIIEKSKDTLISLGCPSFTLMDFHDTFMEVVNQLEEKPSLSELVATYCDQGMSDYLVVYLRLLTSLELQKEAEFYQNFVEGNRTVKEFCSQEVEPMYKESD

- binding [3]: binds
B2: A. japonicus OTU domain-containing ubiquitin aldehyde-binding protein 1 (AjOTUB1), endogenous (enzyme, UniProt A0AB39JB66 1-266)
chain: MAENPDNKIDEEIERLTGMVRDEAILAQQDRIQKEVEDSNALVSERLPLLILKEEYQSDPIYSKKIEDMNASFPYIRKTRGDGNCFFRAFGFAYMEKLLSDKAELHRFKEIIEKSKDTLISLGCPSFTLMDFHDTFMEVVNQLEEKPSLSELVATYCDQGMSDYLVVYLRLLTSLELQKEAEFYQNFVEGNRTVKEFCSQEVEPMYKESDHIHIIALTSYLGVGVRVVYLDRGENQKVNHHDFPEGMPPQIALLYRPGHYDVLYGD

- binding [4]: binds
- binding [1]: binds
- binding [2]: binds
B3: EGFP-tagged AjOTUB1-f1 (full-length ORF, 1-266 aa) (enzyme, UniProt A0AB39JB66 1-266)
chain: B2 chain
